Results deposited as PubChem BioAssay AID1224826 (NIAID, 2016).
The deposit covers about 17,000 reagents; this is a random part of them. In the full data, about 1,110 (6.6%) got an active call. 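Active means lowered or raised reporter signal; replicate intensities are raw and not normalised per plate.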 Reagents against one gene are numbered here. Not all columns of the deposit are shown. Reagent sequences are not shown.

Test: 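Regulators of Tlr4 signalling leading to Tnf-alpha expression in macrophages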 (primary screen)
System: RAW264.7 G9 macrophages from mouse bearing reporters for p65 (GFP) and the Tnf promoter (mCherry)
Reagent: siRNA pool against mouse genes, 100 nM
Time to read-out: 16 h of LPS stimulation, after 2 days of siRNA transfection
Treatment: bacterial lipopolysaccharide (Salmonella minnesota R595), 10 ng/ml
Measurement: 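Imaged Tnf reporter mCherry in nuclei, minus background, normalised per plate to the median and expressed as robust z-scores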
Scale: Tnf reporter robust z-score: higher = stronger Tnf promoter reporter signal after LPS
Active means: 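a well counts as active at a score of -1.3 or below (Tlr4 knock-down control median) or above 3 (raised signal); controls and wells holding fewer than 50 cells are excluded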
Meaning of the calls: active = Tnf reporter clearly lowered or raised; inactive = no clear change in Tnf reporter

For Efhd1 (GeneID 98363), the entry reads Tnf reporter robust z-score -1.96; fewer than 50 cells in well enough cells in well; active.
With knock-down of Supt6 (GeneID 20926) the results were Tnf reporter robust z-score -1.91; fewer than 50 cells in well enough cells in well; active.
Against Cyp2j9 (GeneID 74519), the entry reads Tnf reporter robust z-score -0.53; fewer than 50 cells in well enough cells in well; inactive.
After knock-down of Slc46a3 (GeneID 71706) the results were Tnf reporter robust z-score -0.26; fewer than 50 cells in well enough cells in well; inactive.
With knock-down of Tbp (GeneID 21374), the record shows Tnf reporter robust z-score -0.64; fewer than 50 cells in well enough cells in well; inactive.
Silencing of Rnf32 (GeneID 56874) gave: fewer than 50 cells in well fewer than 50 cells per well; well left out of calls; inactive.
Against Gprasp1 (GeneID 67298) the deposit lists fewer than 50 cells in well fewer than 50 cells per well; well left out of calls; inactive.
Against Fam117a (GeneID 215512) the deposit lists Tnf reporter robust z-score 0.28; fewer than 50 cells in well enough cells in well; inactive.
Against Kcnc1 (GeneID 16502) #1, the values are Tnf reporter robust z-score 0.62; fewer than 50 cells in well enough cells in well; inactive.
Kcnc1 (GeneID 16502) #2 gave Tnf reporter robust z-score 0.35; fewer than 50 cells in well enough cells in well; inactive.
Adra2b (GeneID 11552) gave Tnf reporter robust z-score -0.21; fewer than 50 cells in well enough cells in well; inactive.
Silencing of Hdhd5 (GeneID 214932) came out at: Tnf reporter robust z-score -0.85; fewer than 50 cells in well enough cells in well; inactive.

An excerpt from above, showing only “Tnf reporter robust z-score”.
Adra2b (GeneID 11552) = -0.21
Hdhd5 (GeneID 214932) = -0.85
